No constants are given. Whether binding was seen depends on the method and setting. In cells and extracts the contact can be indirect.
Target: T1, Gephyrin, endogenous (mouse (endogenous in P1 mouse cortex)) (UniProt Q8BUV3)
T1 sequence: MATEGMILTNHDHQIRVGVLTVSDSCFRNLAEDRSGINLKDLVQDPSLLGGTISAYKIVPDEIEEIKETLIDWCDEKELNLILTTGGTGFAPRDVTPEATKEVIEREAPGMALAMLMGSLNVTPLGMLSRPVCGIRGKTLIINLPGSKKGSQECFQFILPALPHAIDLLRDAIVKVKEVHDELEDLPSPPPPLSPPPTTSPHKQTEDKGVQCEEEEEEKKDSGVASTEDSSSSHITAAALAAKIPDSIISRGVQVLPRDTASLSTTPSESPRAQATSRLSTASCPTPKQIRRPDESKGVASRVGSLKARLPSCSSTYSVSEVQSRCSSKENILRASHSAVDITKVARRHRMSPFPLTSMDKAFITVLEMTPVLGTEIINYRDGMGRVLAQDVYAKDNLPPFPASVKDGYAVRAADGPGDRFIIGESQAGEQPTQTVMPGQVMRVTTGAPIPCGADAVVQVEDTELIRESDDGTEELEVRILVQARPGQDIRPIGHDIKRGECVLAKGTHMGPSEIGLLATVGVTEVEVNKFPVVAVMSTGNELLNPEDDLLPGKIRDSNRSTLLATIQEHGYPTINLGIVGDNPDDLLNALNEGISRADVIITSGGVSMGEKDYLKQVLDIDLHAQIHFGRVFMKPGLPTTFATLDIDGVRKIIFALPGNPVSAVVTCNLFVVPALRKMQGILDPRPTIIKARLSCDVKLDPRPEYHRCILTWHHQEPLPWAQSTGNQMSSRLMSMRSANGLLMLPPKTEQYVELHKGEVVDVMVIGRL
Assay: co-IP; endogenous co-IP from cortical protein homogenate of P1 Kif15+/+ mouse; primary antibody overnight at 4 C, agarose beads overnight at 4 C, Western blot

B1: KIF15 (Kinesin-12), endogenous (protein, UniProt Q6P9L6 1-1387)
chain: MAPGCKSELRNVTNSHSNQPSNEGDAIKVFVRIRPAEEGARSADGEQSFCLSVLSQTTLRLHSNPDPKTFVFDYVAGMDTTQESVFSTVAKSIVESCMSGYNGTIFAYGQTGSGKTFTMMGPSDSDNFSHNLRGIIPRSFEYLFSLIDREKEKAGAGKSFLCKCSFIEVYNEQIYDLLDSASVGLYLREHIKKGVFVVGAVEQAVTSAAETYQVLSRGWRNRRVASTSMNRESSRSHAVFTITIESMEKSSETVNIRTSLLNLVDLAGSERQKDTHAEGMRLKEAGNINRSLSCLGQVITALVDVGNGKQRHICYRDSKLTFLLRDSLGGNAKTAIIANVHPGSRCFGETLSTLNFAQRAKLIKNKAVVNEDTQGNVSQLQAEVKRLKEQLSQFTSGQITPESLLARDKEKTNYIEYFLEAMLFFKKSEQEKKSLIEKITQLEDLTLKKEKFIQSNKMIVKFREDQIMRLERLHKEGRGSFLPEEQDRLLSELRDEVQTLREHVEHHPRLAKYAMENHSLREENRRLKLLAPVKRAHEIDAQSIARLEKAFAEVSSTETNDKGLQGFSPKALKESSFFTNTEKLKAQLLQIQTELNNSKQEYEEFKELTRKKQLELESELQSLQKANLNLENLLEATKVCKRQEVSQLNKLHAETLKIITTPTKAYQLCSRLVPKSSPEVGSFGFLCTESSSRLDNDILNEPVPPEMSEQALEAVSEELRTVQEQLSVLQVKLDEEERKNLKLQQNVDKLEHHSTQMQELFSSERSDWTKQQQEHVTQLSDLEKQLQDAQTKNEFLKCEVHDLRIVLNSADKELSLVKLEYSTFKENHEKELSQLSERHVQVQLQLDNARLENEKLLESQACLQDSYDNLQEVMKFEIDQLSKNLQNCKQENETLKSDLHNLVELFEAEKERNNKLSLQFEEDKENSSKEILKVLETVRQEKQKEMAKCEKQMAKIQKLEESLLATENVISSLEKSRESDKELVTNLMNQIQELRISIGEKSETIATLKQELQDINCKYNASLADKEESKELIRRQEVDILELKETLRLRILSEDIERDMLCEDLAHATEQLNMLTEASKKHSGLLQSAQEELTRKEALIQELQHKLNQEKEEVEQKKNEFSLKMRQLEHVMGSATEYPQSPKTPPHFQAHLAKLLETQEQEIEDGRASKTSLQHLVTKLNEDREVKNAEILRMKDQLCEMENLRLESQQLREKNWLLQRQLDDVKRQQESGDQSHPDSQQLKNEHEEIIKERLAKNKLIEEMLKMKTNLEEVQSALHSKEKACHRMSEEIERTRTLESRAFQEKEQLRSKLEEMYEERERTFLEMEMLKKQLEFLAEENGKLVGHQNLHQKIQYVVRLKKENIRLTEETEKLRAENLFLKEKKKEF
- binding: no binding
